End groups of sequences in plain letters are not given here.
Assay: peptide made by a vendor
Conditions: whole synthesis, HPLC, Inertsil ODS-SP column (4.6 mm×250 mm), acetonitrile/water gradient with 0.1% TFA; run 1

For IHKNLLIVQDKFPPRRRQRRKKRG, the “purity (crude or final not stated)” value was 98.03%.

— US20230212229A1 (priority 2021, published 2023)
